In paper PMC9563422:
No constants are given. Whether binding was seen depends on the method and setting. Binding seen in cells or lysates may run through a third protein. Binding can be weak; no strength is given.

Target: GST-Tip60 catalytic MYST domain
Test: pull-down; GST, GST-Tip60 (20 uL glutathione agarose) or GST-Tip60 truncated proteins (1 ug) on beads, incubated with 5 uL in vitro translated PXR in buffer with 100 mM NaCl at 4 °C overnight; washes with 150 mM NaCl; Western blot with PXR antibody; only the target purified

B1: in vitro translated PXR (receptor, UniProt O75469 1-434)
chain: MEVRPKESWNHADFVHCEDTESVPGKPSVNADEEVGGPQICRVCGDKATGYHFNVMTCEGCKGFFRRAMKRNARLRCPFRKGACEITRKTRRQCQACRLRKCLESGMKKEMIMSDEAVEERRALIKRKKSERTGTQPLGVQGLTEEQRMMIRELMDAQMKTFDTTFSHFKNFRLPGVLSSGCELPESLQAPSREEAAKWSQVRKDLCSLKVSLQLRGEDGSVWNYKPPADSGGKEIFSLLPHMADMSTYMFKGIISFAKVISYFRDLPIEDQISLLKGAAFELCQLRFNTVFNAETGTWECGRLSYCLEDTAGGFQQLLLEPMLKFHYMLKKLQLHEEEYVLMQAISLFSPDRPGVLQHRVVDQLQEQFAITLKSYIECNRPQPAHRFLFLKIMAMLTELRSINAQHTQRLLRIQDIHPFATPLMQELFGITGS
Q: With B1 as the binder, how does the binding read?
A: The binding was “binds”.
